Data published in PubChem BioAssay AID1671190 (National Center for Advancing Translational Sciences (NCATS), 2021).
In all, about 580,000 compounds went through this assay and about 6,100 (1.1%) were called active. This list was built around the results that the source calls inconclusive (neither active nor inactive); the mix of calls is not that of the screen. Calls follow the shape of the dose curve; as a rule, active = well fitted inhibition curve with a large enough effect; inconclusive = small, poorly fitted or top-dose-only effect, or another doubt; inactive = no such curve, though single readings can be large or run the other way. Potencies beside an inconclusive call are fits to weak or partial responses and may not hold up.

Amino acid sequences for entries named in this document (tags omitted). A change or cut given only in a name is not applied to a line headed by its entry.
UniProt P18054: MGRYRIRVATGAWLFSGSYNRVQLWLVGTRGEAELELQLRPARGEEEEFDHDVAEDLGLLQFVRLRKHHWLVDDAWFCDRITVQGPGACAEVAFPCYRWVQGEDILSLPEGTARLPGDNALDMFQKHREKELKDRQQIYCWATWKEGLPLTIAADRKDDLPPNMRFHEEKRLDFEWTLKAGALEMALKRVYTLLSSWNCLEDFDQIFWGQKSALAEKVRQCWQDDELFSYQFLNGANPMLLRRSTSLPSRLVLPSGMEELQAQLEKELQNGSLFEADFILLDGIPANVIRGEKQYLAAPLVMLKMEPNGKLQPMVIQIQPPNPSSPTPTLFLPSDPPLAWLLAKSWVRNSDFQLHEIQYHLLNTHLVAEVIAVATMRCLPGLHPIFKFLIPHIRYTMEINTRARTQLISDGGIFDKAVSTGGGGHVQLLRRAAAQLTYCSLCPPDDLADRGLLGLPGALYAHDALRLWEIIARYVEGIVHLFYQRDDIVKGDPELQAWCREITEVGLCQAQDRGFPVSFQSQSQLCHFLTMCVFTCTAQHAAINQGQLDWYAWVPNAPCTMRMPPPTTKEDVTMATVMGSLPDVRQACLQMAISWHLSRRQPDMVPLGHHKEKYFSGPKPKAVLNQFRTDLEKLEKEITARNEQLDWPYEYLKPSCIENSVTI

Molecular target: Polyunsaturated fatty acid lipoxygenase ALOX12 (Homo sapiens) (UniProt P18054)
Experiment: Primary qHTS assay for inhibitors of human arachidonate 12S-lipoxygenase (ALOX12): Round 2
Conditions: purified 12hLO, xylenol orange hydroperoxide absorbance; series mostly up to 108 µM
Method in brief: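 Purified human 12hLO (150 nM final) in 25 mM Hepes, 0.01% Triton X-100, pH 7.0 was preincubated 15 min at room temperature with compound. Then 40 uM arachidonic acid was added, 30 min. Hydroperoxide was read by Fe-XO absorbance ratio 573/405 nm.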
Potency is read from the fitted curve at half-maximal effect.

SMILES	Potency
C/C(=N\O)C(C)/[N+]([O-])=C/c1nc(C)c(C)n1O (stereo not drawn)	inconclusive: 4.47 µM [inhibitor, single point]
CC(c1nc(C(C)(C)C)no1)N1CCN(c2oc(C3CC3)nc2C#N)CC1 (stereo not drawn)	inconclusive: 100 µM [inhibitor, single point]
Cc1ccc(NC(=O)COC(=O)c2ccc(S(=O)(=O)NCc3ccco3)cc2)cc1	inactive
O=C(Nc1ccccc1)c1nnsc1S(=O)(=O)c1ccc(Cl)cc1	inconclusive: 3.55 µM [inhibitor, full curve, poor fit]
COC(=O)C1=C(O)/C(=C\c2ccc(CNS(=O)(=O)c3ccccc3)o2)N=C1C	inconclusive: 17.8 µM [inhibitor, partial curve]
COc1ccc(NC(=O)c2ccc3c(c2)N(C)CCS3)cc1	inactive
O=C(NCCN1CCCCCC1)c1n[nH]c(=O)c2ccccc12	inconclusive: 56.2 µM [inhibitor, partial curve, poor fit]
COC(=O)c1c(C)[nH]c(C(=O)C(C)Nc2cc(OC)cc(OC)c2)c1C (stereo not drawn)	inconclusive: 5.62 µM [inhibitor, full curve, poor fit]
COc1ccc2[nH]c3c(c2c1)CCN1C(=O)N([C@@H](C)C(=O)NCc2ccccc2)C(=O)[C@]31C	inactive
COCCNc1ncnc2ccc(-c3c(C)noc3C)cc12	inconclusive: 7.08 µM [inhibitor, full curve, poor fit]
COCCN1C(=O)COc2ccccc2C1C(=O)NC1CCCC1 (stereo not drawn)	inconclusive: 44.7 µM [inhibitor, partial curve, poor fit]
Fc1ccc(CN2CCNc3cnc(-c4ccccc4)cc3C2)cc1F	inconclusive: 22.4 µM [inhibitor, full curve, poor fit]
N#CCCn1c(=O)c(-c2ccc(Cl)cc2)nc2cnc(N3CCNCC3)nc21	inconclusive: 35.5 µM [inhibitor, partial curve, poor fit]
CCCCOc1cccc2c(=O)n(CC(=O)Nc3ccc4c(c3)OCCO4)ccc12	inconclusive: 20 µM [inhibitor, partial curve, poor fit]
Cn1cnc(S(=O)(=O)N2CCC(Cc3ccc(C(N)=O)cc3)CC2)c1	inactive
O=C(NCCNC(=O)c1nc2ccccc2c(=O)[nH]1)c1ccc2ccccc2c1	inconclusive: 39.8 µM [inhibitor, partial curve, poor fit]
CCn1cc(S(=O)(=O)Nc2ccc(F)cc2C)cn1	inconclusive: 0.562 µM [inhibitor, full curve, poor fit]
O=c1[nH]c2cc([N+](=O)[O-])c([N+](=O)[O-])cc2[nH]c1=O	inconclusive: 35.5 µM [inhibitor, partial curve, poor fit]
Nn1cnc2c([nH]c3ccccc32)c1=O	inactive
O=C1c2sc3nc4n(c(=O)c3c2CCC1Br)CCCCC4 (stereo not drawn)	inconclusive: 0.0891 µM [inhibitor, full curve, poor fit]
COc1ccc(-n2c(=O)c3ccc(C(=O)NCc4ccc(C)cc4)cc3n(CC(=O)Nc3ccc(C)cc3)c2=O)cc1	inconclusive: 100 µM [inhibitor, single point]

SMILES	Potency
CSC1=N/C(=C\c2ccc(OCC(=O)O)cc2)C(=O)S1	inconclusive: 0.316 µM [inhibitor, full curve, poor fit]
O=C(O)c1ccc(CSc2nc3ccccc3[nH]2)cc1	inactive
FC(F)(F)c1ccccc1Cc1c(-c2cccc(Cl)c2)nc2ccc(Br)cn12	inconclusive: 70.8 µM [inhibitor, partial curve, poor fit]
COC(=O)c1ccc(N2C(=O)CC(SCC(=O)Nc3ccc(OC)cc3)C2=O)cc1 (stereo not drawn)	inconclusive: 1 µM [inhibitor, full curve, poor fit]
Cc1cnc(CNc2ncnc3ccc(-c4ccoc4)cc23)cn1	inconclusive: 39.8 µM [inhibitor, partial curve]
O=C(CCC[C@@H]1[C@H]2CCCN3CCC[C@@H](CN1C(=O)c1cc(F)ccc1F)[C@@H]23)N1CCOCC1	inactive
CCOc1ccc(S(=O)(=O)NC(C)(C)C)cc1-c1nc2c(C(C)(C)C)nn(C)c2c(=O)[nH]1	inactive
CCCn1nc(C(=O)N(Cc2ccc3c(c2)OCO3)C2CCCC2)c2ccccc2c1=O	inactive
CCOc1cc(/C=C2/C(=O)ON=C2C)ccc1OCc1ccccc1	inconclusive: 35.5 µM [inhibitor, partial curve, poor fit]
CC(=O)c1ccc(N2CCN(C3C(=O)c4ccccc4N3C(C)=O)CC2)cc1 (stereo not drawn)	inconclusive: 141 µM [inhibitor, partial curve, poor fit]
COc1ccc(C(c2nnnn2Cc2ccccc2)N2CCN(C(=O)c3ccco3)CC2)cc1OC (stereo not drawn)	inconclusive: 35.5 µM [inhibitor, full curve, poor fit]
COC(=O)[C@]12CCC(C)(C)C[C@@H]1[C@@H]1C(=O)C=C3[C@@]4(C)C=C(C#N)C(=O)C(C)(C)[C@@H]4CC[C@@]3(C)[C@]1(C)CC2	active: 9.68 µM
CCC1Cc2cc(O)ccc2C2=C1c1ccc(O)cc1CC2CC (stereo not drawn)	inconclusive: 15.8 µM [inhibitor, full curve, poor fit]
COc1ccccc1NC(=O)CCn1c(=O)oc2cc(Cl)ccc21	inconclusive: 100 µM [inhibitor, partial curve, poor fit]
Cc1ccc2c(C(=O)NCc3ccc(Cl)nc3)cnn2c1	inconclusive: 70.8 µM [inhibitor, partial curve]
COc1ccc(-c2cc(C(=O)NC3CCCC3)c3ccccc3n2)cc1OC	inactive
CNc1c(NC(=O)CCc2ccccc2)c(=O)oc2ccccc12	inactive
O=S(=O)(c1ccc(-c2csc(Nc3ccc(F)cc3)n2)cc1)N1CCCC1	inconclusive: 50.1 µM [inhibitor, partial curve, poor fit]
O[C@H]1[C@H](NCC2CCCCC2)[C@H]2CO[C@H](O2)[C@@H]1N1CCC(Cc2ccccc2)CC1	inactive
Cc1cccc(C2=NN(c3ccccc3)[C@H](CO)[C@H]2c2ccc(Cl)cc2)c1	inconclusive: 44.7 µM [inhibitor, partial curve, poor fit]
Cc1cc(C)c(OCC(=O)OCCNC(=O)c2cccnc2)c(C)c1	inconclusive: 50.1 µM [inhibitor, partial curve, poor fit]

SMILES	Potency
CC(=O)N/C(N)=N/c1nc(=O)c2ccccc2s1	inconclusive: 35.5 µM [inhibitor, single point]
CCOc1ccc(C(=O)N2CCN(c3cc(-c4ccc(Cl)cc4)[nH]n3)CC2)cc1OCC	inactive
COc1cccc(-c2nnc3n(Cc4ccccc4Cl)c(=O)c4ccccc4n23)c1O	inconclusive: 50.1 µM [inhibitor, partial curve, poor fit]
O=C(Cc1ccccc1)N1O[C@H]2C=C[C@@H]1CC2	inconclusive: 31.6 µM [inhibitor, single point]
CN(C)C[C@@H]1CN(c2ccncn2)C[C@H]1NC(=O)c1ccsc1	inconclusive: 89.1 µM [inhibitor, single point]
COC(=O)c1ccc(NC(=O)CN2CCCC2)cc1	inactive
CCCCC(=O)N/N=C(/C)c1ccc(NC(=O)c2ccc(Cl)cc2)cc1	inactive
COC(=O)C1=NN(c2ccc(OC)cc2)C2C(=O)N(c3ccccc3OC)C(=O)C12 (stereo not drawn)	inconclusive: 100 µM [inhibitor, partial curve, poor fit]
Cc1ccc(S(=O)(=O)Nc2c(C)nn(C)c2C)cc1	inactive
CC(=O)NC(=S)Nc1ccc(NC(=S)NC(=O)c2cccs2)cc1	inconclusive: 63.1 µM [inhibitor, partial curve, poor fit]
Cc1c(Cl)cccc1NC(=O)CN1C(=O)CCn2nc(-c3cccn3C)cc21	inconclusive: 112 µM [inhibitor, partial curve, poor fit]
Cc1ccc(Cn2c(C3CCN(C(=O)c4ccc(C)s4)CC3)n[nH]c2=O)cc1	inconclusive: 14.1 µM [inhibitor, partial curve]
COc1ccc(OC)c(NC(=O)CC2SC(=Nc3ccc(F)cc3)N(CCC3=CCCCC3)C2=O)c1 (stereo not drawn)	inactive
Cc1ccsc1/C=C1\Oc2cc(OS(C)(=O)=O)ccc2C1=O	inconclusive: 3.98 µM [inhibitor, full curve, poor fit]
Cc1ccc2cc(C(c3nnnn3C3CCCC3)N3CCN(c4ccccc4)CC3)c(=O)[nH]c2c1 (stereo not drawn)	inconclusive: 63.1 µM [inhibitor, partial curve, poor fit]
COc1cccc(-c2nc3nc(C)cc(C)n3c2NCc2ccccc2)c1	inactive
Cc1ccc(NC(=O)CCC(=O)c2cccs2)cc1	inconclusive: 100 µM [inhibitor, partial curve, poor fit]
NC1=NC(=O)/C(=C/C=C/c2cccs2)S1	inconclusive: 50.1 µM [inhibitor, partial curve, poor fit]
Cc1csc(NC(=O)c2nn(C)c(=O)c3ccccc23)n1	inconclusive: 35.5 µM [inhibitor, partial curve, poor fit]
Cc1onc(-c2c(Cl)cccc2Cl)c1C(=O)ONC(=O)c1cc(C(F)(F)F)cc(C(F)(F)F)c1	inconclusive: 0.501 µM [inhibitor, full curve, poor fit]
COc1cc(-c2nc3ccc(C)cn3c2Nc2ccc(Cl)cc2)ccc1O	inconclusive: 11.2 µM [inhibitor, partial curve, poor fit]

3 consecutive compounds already listed, quoted:
SMILES	Potency
Fc1ccc(CN2CCNc3cnc(-c4ccccc4)cc3C2)cc1F	inconclusive: 22.4 µM [inhibitor, full curve, poor fit]
N#CCCn1c(=O)c(-c2ccc(Cl)cc2)nc2cnc(N3CCNCC3)nc21	inconclusive: 35.5 µM [inhibitor, partial curve, poor fit]
CCCCOc1cccc2c(=O)n(CC(=O)Nc3ccc4c(c3)OCCO4)ccc12	inconclusive: 20 µM [inhibitor, partial curve, poor fit]
